{"source": "PubChem BioAssay AID1508600", "about": "(Functional Genomics Laboratory (NCATS/FGL), 2020)", "note": "Hit rate of the full screen: of about 53,000 sequences, about 3,700 (7%) were called active.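 How the source made its calls: active means gene knockdowns whose robust z-score for IL-1 alpha signal is at least 2 or at most -2, so actives lie on both sides; inactive means the rest.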 This is one part of the list."}
{"assay": "Components of the Cytosolic LPS Sensing Pathway: Gene Identification via Genome-wide siRNA Screen;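 further: robust z of the log signal after scaling to non-targeting control siRNA wells of the plate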", "conditions": "RAW264.7 macrophages, IL-1a HTRF, actives lie on both sides, screened at 100 nM (by protocol), cells primed 5 h with Pam3CSK4 first", "summary_of_the_method": "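RAW264.7; siRNA 100 nM final, RNAiMAX, 48h 37 degrees C; Pam3CSK4 5 h; LipidA + TransIT-TKO 24 h; IL-1a HTRF; CellTiter-Glo viability; robust z vs negative-control median.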"}
{"sequence": "CGAUCUACAUCGAAUAAAUTT against Sap130", "z-score": "inactive: 1.5"}
{"sequence": "GGAGGAAGAUGAGUUCUACTT against Vps72", "z-score": "inactive: 0.757"}
{"sequence": "GGUAUUUGAUGGUCACAAATT against Rtn3", "z-score": "inactive: -0.515"}
{"sequence": "CCGAAUUCCAACCUAGAGCTT against Yipf5", "z-score": "inactive: -1.38"}
{"sequence": "GCCACGAUAAUUCAGGAGUTT against Aurkc", "z-score": "active: 2.27"}
{"sequence": "GGAGCUUGAAGGAUGAGGATT against Plaur", "z-score": "inactive: -1.41"}
{"sequence": "GCUGCACACUGGAAUCACATT against Lonrf2", "z-score": "inactive: -1.99"}
{"sequence": "GGUGAUGGAAGUUAGUGUGTT against Bet1", "z-score": "inactive: -1.34"}
{"sequence": "GCACAGUUAGCAUUGCUCCTT against Hoxc10", "z-score": "inactive: -1.48"}
{"sequence": "CCAUAGAGUGGAUAGUCAUTT against Rsl1", "z-score": "inactive: 0.385"}
{"sequence": "CGCGAGCUCAGAAUACAUGTT against Btn1a1", "z-score": "active: 2.5"}
{"sequence": "CGAUCACCUUAGUAAAUACTT against Ykt6", "z-score": "inactive: 0.233"}
{"sequence": "GGAAGUGUCCUUCUACCAGTT against Hoxd13", "z-score": "inactive: -0.00821"}
{"sequence": "GGAAGCUCAGCUCCUAUCUTT against Nek4", "z-score": "inactive: -1.42"}
{"sequence": "GCAAGAAACCAACCAAUCCTT against Septin6", "z-score": "inactive: -0.74"}
{"sequence": "GCUACAAGUACUGGUUUCUTT against Pcnx3", "z-score": "inactive: 1.4"}
{"sequence": "GGAUGCUAUAAAAUCACCATT against Rps27", "z-score": "inactive: 0.667"}
{"sequence": "GGGUAUGUCGGAGACCUUUTT against Cnpy3", "z-score": "inactive: -0.637"}
{"sequence": "GGAUGAAGGGACGAAUUCATT against Pcdha6", "z-score": "inactive: 0.635"}
{"sequence": "GGCCCAACAAUACCUGCUGTT against Rgs17", "z-score": "inactive: -1.5"}
{"sequence": "GGUUUCGUAGCUUAACCACTT against Rab27a", "z-score": "inactive: -0.996"}
{"sequence": "GGAUACACAGACAUUAAUCTT against Cd164", "z-score": "inactive: 1.14"}
{"sequence": "GGGCUUCAUUCUCGUCUACTT against Rap2b", "z-score": "inactive: 1.41"}
{"sequence": "GGACUACGGAUACAGGAUATT against Sfrp5", "z-score": "inactive: 0.178"}
{"sequence": "GGAGAAUACAGUGGAAUUGTT against Idh3a", "z-score": "inactive: 0.951"}
{"sequence": "GGACUCAGCACUCUUUUGCTT against E130311K13Rik", "z-score": "inactive: -1.04"}
{"sequence": "CCGCAUGAACUUCCUACAGTT against Ugt1a1", "z-score": "inactive: 1.2"}
{"sequence": "GGAGAUGGCCAAAAAAGAGTT against Pop1", "z-score": "inactive: -0.519"}
{"sequence": "CGAGUGACAGCUAAGUAUGTT against Pskh1", "z-score": "inactive: -1.4"}
{"sequence": "GCGGCUAAUUCGUUCUUUCTT against Atp8a1", "z-score": "inactive: 0.708"}
{"sequence": "GCACUGGGAAGAAAAUUCUTT against Olfr130", "z-score": "inactive: -1.42"}
{"sequence": "GCGAGAUGCCAACAAACUGTT against Pacs1", "z-score": "inactive: 0.678"}
{"sequence": "GGGUUCAAGGUAUUCUUAGTT against Vmn1r225", "z-score": "inactive: -1.88"}
{"sequence": "GGCAUGAGUCACUUGAUGATT against Hebp1", "z-score": "inactive: -0.999"}
{"sequence": "GCCUUUACCGAGUGCACAUTT against Ttyh3", "z-score": "inactive: 1.8"}
{"sequence": "GCAGGAUUCAAAGAUCUAATT against Kbtbd8", "z-score": "inactive: -0.587"}
{"sequence": "GGCGUGUCCUACCUUGAAATT against Scg3", "z-score": "inactive: 0.81"}
{"sequence": "CCUUGUUUGAAUAACGAACTT against 5830427D03Rik", "z-score": "inactive: -1.73"}
{"sequence": "GUACAUCAUAGCCAAGUUCTT against Foxl2", "z-score": "inactive: -0.468"}
{"sequence": "GCAAAUACUCUCAACUAACTT against Celsr3", "z-score": "inactive: 0.686"}
{"sequence": "GGAUAAAUGCCAUUUUGGATT against Cpeb1", "z-score": "inactive: -0.664"}
{"sequence": "GGACUGUGGAUAACCUGCUTT against Hspb2", "z-score": "active: -2.55"}
{"sequence": "GGACAAGUAAAACAGAACATT against Muc4", "z-score": "inactive: 1.5"}
{"sequence": "GCCUUGUGACGACAUAAAGTT against Rabl3", "z-score": "inactive: -1.75"}
{"sequence": "GGACCAUCUGUCCACAGUUTT against Dglucy", "z-score": "inactive: -0.758"}
{"sequence": "CCCUGUAGAAAUUCAAGCCTT against Lyrm4", "z-score": "inactive: 0.38"}
{"sequence": "CGUAUGUUGGAACAAAUGCTT against Map2k5", "z-score": "inactive: 1.94"}
{"sequence": "GCCUUUAAGUGGAAUCAGUTT against Serhl", "z-score": "inactive: -1.12"}
{"sequence": "GGCUUUCGGUUAUGACCAATT against Alas2", "z-score": "inactive: -0.385"}
{"sequence": "GCAUGGAGUGUGCAUUCCATT against Tcf25", "z-score": "inactive: -0.954"}
{"sequence": "GGAAAGGAAUGUUCAAAUUTT against Psmb8", "z-score": "active: 2.02"}
{"sequence": "CCAUGGCCUAGAGCUGGAUTT against Unc5cl", "z-score": "inactive: 0.315"}
{"sequence": "GCCUAUGCACCUUACCUUUTT against Sae1", "z-score": "inactive: 0.936"}
{"sequence": "CCAUAUUCCGGUUAAUUCATT against 1700102P08Rik", "z-score": "inactive: 0.909"}
{"sequence": "GGAGUACAAAGAAAGGAACTT against Nop14", "z-score": "inactive: 0.588"}
{"sequence": "GUACACCAGUGGAAGCACATT against Sprr2b", "z-score": "inactive: -1.91"}
{"sequence": "GGAAUCAACAAGGUUAUCATT against Glb1l2", "z-score": "inactive: 0.205"}
{"sequence": "CCCUGUUACAGUCAGAAGCTT against Slc39a13", "z-score": "inactive: 0.286"}
{"sequence": "CAUAUGAAAAUGAAUGCCATT against Spink4", "z-score": "inactive: 0.166"}
{"sequence": "GGAGUCAUAUGCACAGAUCTT against Tcte3", "z-score": "inactive: -0.706"}
{"sequence": "CCCUAAACCAGAUGCGUACTT against Epn3", "z-score": "inactive: -0.754"}
{"sequence": "GCGCAUGACUACAUCAGCUTT against Ptgs1", "z-score": "inactive: -0.736"}
{"sequence": "GCAGCUCGAUGGAACUCCATT against Abl1", "z-score": "inactive: 0.0525"}
{"sequence": "GGGUUUGGCCAUGAAUUUGTT against Hgf", "z-score": "inactive: 0.356"}
{"sequence": "GCACGAGAUUGACUUGCCUTT against Ldlrad4", "z-score": "inactive: -1.44"}
{"sequence": "GGUCAGAUUCUUUGAUGAATT against Ssr4", "z-score": "inactive: 0.11"}
{"sequence": "GGCUGAAGGGCUCUACAAATT against Susd4", "z-score": "inactive: 1.66"}
{"sequence": "GGACAAGAAGAAAAAGAAGTT against Tmie", "z-score": "inactive: -1.96"}
{"sequence": "GGUCUUUUCUAUUAUGGGATT against Strc", "z-score": "inactive: 1.22"}
